In the supplement of paper PMC10849652:
The other results are listed elsewhere or left out.

Sequences of proteins named here, by UniProt entry; tags and fusion partners are left off. A change or cut given only in a name is not applied to a line headed by its entry.
UniProt Q9H9P8: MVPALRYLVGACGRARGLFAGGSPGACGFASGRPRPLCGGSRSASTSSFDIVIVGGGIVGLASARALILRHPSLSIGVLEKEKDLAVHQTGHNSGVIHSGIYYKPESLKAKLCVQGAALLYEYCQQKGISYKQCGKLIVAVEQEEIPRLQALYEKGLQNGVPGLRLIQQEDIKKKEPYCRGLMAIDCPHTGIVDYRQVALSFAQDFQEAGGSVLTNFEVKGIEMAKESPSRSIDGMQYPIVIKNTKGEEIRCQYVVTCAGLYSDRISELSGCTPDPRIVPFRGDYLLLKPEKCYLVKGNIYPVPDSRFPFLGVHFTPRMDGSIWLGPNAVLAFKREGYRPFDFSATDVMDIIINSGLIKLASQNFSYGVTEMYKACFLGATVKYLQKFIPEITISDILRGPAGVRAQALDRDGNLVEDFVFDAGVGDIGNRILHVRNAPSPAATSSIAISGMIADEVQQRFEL
UniProt Q9H008: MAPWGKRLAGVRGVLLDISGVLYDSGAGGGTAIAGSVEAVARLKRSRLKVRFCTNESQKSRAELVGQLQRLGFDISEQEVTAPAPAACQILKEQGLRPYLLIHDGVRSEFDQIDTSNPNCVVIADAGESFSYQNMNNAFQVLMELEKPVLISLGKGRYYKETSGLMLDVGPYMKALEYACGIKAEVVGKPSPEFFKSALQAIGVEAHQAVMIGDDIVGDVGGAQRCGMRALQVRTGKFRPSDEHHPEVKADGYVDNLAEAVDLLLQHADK
UniProt P07942: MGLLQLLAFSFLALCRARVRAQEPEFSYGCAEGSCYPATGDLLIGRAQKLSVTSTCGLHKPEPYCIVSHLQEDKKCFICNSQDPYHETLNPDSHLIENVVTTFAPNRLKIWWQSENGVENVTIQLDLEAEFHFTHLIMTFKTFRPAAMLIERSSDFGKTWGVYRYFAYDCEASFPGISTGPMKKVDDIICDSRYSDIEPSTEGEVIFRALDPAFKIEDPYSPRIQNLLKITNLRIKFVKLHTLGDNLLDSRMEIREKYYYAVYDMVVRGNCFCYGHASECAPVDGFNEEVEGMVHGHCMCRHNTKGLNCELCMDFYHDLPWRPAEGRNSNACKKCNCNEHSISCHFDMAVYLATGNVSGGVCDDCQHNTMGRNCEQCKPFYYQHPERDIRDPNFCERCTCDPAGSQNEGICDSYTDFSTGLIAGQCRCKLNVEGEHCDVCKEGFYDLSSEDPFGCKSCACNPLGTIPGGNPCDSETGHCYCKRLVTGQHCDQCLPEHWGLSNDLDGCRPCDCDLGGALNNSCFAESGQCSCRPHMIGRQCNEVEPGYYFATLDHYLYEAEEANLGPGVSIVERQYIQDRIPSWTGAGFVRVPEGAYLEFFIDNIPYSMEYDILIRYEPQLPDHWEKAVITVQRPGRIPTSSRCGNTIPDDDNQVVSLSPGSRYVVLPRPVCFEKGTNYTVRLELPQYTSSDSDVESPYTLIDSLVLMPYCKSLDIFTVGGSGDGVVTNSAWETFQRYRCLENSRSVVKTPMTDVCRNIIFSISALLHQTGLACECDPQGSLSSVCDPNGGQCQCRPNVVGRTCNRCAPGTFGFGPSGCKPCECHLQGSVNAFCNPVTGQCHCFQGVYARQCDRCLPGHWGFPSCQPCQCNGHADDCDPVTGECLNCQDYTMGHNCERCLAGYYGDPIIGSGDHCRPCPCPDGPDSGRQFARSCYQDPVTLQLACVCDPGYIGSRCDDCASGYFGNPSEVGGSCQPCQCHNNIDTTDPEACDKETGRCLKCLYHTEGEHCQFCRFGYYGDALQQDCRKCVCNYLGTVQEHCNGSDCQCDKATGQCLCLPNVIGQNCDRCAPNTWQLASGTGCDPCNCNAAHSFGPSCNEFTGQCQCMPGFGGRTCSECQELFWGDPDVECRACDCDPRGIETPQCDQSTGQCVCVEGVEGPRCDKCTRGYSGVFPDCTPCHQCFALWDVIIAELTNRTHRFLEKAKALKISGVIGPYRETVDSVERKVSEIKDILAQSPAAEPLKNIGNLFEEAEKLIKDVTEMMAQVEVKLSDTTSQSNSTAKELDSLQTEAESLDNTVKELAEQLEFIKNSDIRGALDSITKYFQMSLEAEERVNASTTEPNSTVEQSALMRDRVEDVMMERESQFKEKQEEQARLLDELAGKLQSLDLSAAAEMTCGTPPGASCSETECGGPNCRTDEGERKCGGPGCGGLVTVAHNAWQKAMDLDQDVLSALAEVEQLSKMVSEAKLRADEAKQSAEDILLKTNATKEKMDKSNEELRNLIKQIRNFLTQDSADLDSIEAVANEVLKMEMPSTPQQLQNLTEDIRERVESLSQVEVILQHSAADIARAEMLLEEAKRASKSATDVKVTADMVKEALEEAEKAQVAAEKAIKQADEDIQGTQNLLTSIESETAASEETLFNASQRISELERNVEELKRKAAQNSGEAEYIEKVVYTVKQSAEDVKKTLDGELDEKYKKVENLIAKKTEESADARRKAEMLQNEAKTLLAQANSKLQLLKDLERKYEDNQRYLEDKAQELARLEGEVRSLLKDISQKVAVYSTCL
UniProt Q6YP21: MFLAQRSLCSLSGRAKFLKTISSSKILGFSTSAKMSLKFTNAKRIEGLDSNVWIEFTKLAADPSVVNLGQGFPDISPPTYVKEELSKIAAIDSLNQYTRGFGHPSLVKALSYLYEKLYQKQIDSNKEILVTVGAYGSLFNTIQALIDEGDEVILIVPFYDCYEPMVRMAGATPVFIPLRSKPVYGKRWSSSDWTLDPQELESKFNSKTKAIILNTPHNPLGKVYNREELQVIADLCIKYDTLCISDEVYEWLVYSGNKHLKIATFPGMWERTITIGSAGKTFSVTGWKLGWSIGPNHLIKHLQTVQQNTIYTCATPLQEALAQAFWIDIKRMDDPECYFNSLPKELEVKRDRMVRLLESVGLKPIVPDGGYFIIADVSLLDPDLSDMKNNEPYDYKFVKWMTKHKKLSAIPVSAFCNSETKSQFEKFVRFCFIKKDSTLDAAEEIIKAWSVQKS
UniProt O95202: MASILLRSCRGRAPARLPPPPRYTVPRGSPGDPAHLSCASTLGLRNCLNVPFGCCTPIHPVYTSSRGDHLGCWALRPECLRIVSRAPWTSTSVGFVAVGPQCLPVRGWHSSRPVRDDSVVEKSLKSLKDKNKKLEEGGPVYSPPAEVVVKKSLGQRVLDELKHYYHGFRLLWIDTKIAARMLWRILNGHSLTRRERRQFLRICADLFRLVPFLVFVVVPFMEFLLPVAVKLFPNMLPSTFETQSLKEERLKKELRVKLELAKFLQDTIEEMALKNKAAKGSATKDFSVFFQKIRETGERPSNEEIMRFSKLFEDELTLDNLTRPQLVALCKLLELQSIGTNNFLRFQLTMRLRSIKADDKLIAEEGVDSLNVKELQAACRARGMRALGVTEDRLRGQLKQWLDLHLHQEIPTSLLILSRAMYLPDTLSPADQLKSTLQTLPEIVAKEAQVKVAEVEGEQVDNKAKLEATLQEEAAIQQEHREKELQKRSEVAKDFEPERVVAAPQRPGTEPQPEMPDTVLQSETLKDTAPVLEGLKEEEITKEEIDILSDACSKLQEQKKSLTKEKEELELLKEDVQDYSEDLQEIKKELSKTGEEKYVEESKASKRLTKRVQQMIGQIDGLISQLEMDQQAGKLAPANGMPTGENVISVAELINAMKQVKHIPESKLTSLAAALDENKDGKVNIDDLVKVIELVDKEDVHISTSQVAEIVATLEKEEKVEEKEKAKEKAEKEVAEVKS
UniProt Q96EK9: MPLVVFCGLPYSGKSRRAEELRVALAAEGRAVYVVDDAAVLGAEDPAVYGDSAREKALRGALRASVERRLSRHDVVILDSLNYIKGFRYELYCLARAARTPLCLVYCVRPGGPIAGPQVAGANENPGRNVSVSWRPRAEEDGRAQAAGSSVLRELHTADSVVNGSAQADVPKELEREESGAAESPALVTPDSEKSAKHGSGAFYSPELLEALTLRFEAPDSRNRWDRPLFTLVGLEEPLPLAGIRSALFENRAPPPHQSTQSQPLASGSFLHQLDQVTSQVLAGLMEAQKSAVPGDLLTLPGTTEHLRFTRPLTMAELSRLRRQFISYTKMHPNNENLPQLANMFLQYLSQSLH
UniProt O00214: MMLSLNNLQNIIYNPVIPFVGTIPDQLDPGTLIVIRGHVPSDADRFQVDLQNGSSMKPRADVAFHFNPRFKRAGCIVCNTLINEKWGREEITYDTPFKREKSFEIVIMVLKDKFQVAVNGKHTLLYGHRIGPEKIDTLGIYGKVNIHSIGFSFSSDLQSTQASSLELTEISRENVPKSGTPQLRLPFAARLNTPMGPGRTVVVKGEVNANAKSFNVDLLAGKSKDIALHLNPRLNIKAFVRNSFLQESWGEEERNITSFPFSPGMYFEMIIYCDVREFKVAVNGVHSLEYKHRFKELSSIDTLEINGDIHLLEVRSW
UniProt Q9NUN5: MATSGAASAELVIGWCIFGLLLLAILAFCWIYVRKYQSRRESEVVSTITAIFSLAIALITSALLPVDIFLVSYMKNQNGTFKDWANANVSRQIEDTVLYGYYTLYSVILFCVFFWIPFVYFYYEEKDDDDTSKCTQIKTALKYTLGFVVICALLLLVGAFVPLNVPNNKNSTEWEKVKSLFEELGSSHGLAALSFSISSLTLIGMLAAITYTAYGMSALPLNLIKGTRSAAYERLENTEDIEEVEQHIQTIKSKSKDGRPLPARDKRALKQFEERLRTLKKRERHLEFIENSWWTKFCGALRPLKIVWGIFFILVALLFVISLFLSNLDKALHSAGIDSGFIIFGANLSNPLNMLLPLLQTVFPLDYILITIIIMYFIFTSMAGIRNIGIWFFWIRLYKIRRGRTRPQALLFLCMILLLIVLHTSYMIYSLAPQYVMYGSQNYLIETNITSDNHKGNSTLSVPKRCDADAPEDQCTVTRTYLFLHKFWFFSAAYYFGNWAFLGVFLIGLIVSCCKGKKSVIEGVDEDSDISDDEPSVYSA
UniProt Q9BQK8: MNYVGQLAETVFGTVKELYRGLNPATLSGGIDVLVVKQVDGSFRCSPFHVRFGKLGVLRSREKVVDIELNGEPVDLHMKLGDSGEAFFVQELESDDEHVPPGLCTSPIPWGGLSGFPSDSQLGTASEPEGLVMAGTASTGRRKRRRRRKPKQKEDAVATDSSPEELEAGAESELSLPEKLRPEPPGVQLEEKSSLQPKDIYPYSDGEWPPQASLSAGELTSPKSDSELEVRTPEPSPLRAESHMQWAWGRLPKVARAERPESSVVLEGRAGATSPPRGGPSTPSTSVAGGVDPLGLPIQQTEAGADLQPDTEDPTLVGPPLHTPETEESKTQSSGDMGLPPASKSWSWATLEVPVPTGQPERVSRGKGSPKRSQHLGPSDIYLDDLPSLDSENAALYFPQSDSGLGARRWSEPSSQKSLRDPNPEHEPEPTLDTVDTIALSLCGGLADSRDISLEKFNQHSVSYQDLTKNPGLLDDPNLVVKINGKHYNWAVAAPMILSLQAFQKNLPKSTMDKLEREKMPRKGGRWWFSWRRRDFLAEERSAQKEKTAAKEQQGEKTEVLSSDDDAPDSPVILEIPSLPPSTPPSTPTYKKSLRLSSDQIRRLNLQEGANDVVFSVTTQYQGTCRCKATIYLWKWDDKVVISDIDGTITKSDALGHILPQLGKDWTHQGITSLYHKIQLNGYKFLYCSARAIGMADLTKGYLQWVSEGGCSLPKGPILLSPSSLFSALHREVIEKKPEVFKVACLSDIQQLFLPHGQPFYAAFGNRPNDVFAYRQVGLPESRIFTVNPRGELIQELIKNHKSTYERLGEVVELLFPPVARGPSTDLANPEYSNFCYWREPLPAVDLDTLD
UniProt Q13094: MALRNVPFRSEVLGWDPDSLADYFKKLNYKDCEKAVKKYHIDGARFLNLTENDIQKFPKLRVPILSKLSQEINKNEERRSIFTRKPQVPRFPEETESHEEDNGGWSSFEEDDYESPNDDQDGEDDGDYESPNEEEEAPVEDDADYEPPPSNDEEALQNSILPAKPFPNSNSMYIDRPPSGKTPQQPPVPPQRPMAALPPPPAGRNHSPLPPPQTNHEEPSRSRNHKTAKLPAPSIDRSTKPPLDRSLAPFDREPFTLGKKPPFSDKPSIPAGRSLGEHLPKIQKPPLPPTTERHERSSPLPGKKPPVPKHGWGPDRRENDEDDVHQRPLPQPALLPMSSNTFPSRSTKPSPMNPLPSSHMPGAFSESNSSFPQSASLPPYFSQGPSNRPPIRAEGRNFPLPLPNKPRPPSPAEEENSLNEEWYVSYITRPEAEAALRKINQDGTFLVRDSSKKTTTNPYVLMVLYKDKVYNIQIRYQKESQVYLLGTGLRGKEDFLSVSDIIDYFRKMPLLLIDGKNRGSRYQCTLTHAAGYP
UniProt Q9BQE6: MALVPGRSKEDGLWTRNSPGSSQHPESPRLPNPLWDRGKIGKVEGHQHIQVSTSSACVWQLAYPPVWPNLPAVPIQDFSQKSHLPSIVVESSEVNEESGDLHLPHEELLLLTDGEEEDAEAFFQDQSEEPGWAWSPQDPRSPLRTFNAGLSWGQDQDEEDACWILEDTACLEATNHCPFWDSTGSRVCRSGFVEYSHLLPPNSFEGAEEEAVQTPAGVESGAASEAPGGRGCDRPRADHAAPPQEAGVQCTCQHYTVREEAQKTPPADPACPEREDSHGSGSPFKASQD

What was measured:
Test in all cases: log2 fold change, soluble protein after heating vs DMSO (PISA); higher = thermal stabilisation; K562 cells, 10 uM, 30 min; active = over 0.2 and 3.5 SD of the protein, either way, in both replicates (recomputed)
[1] = compound: C1=CC=C(C=C1)[C@H](COC2=CC3=C(C=C2)NC(=O)N3)NC(=O)C4=CC=CN(C4=O)CC5=CC(=C(C=C5)F)F
Summary of the method: (§1)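 K562 cells at 2×10^6 cells/mL were given 10 μM compound for 30 min. Aliquots then went through 3 min of heating across 48°C-58°C, were pooled, and were extracted in PBS with 0.5% NP-40 at 4°C, and the supernatant after 21,000xg for 90 min was quantified by TMTpro 16plex LC-MS/MS with channel sums equalised. Thermal stability relative to control samples, from duplicates, is given as log2 fold change.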

[2] = compound: CC1=C(SC2=C1C(=N[C@H](C3=NN=C(N32)C)CC(=O)N)C4=CC=C(C=C4)Cl)C
Summary of the method: as §1

[3] = compound: CC1=C2C(=CC=C1)N=C(N(C2=O)C3=CC=CC=C3C)CN4C=NC5=C(N=CN=C54)N
Summary of the method: as §1

[4] = compound: Cc1sc2c(c1C)C(c1ccc(Cl)cc1)=N[C@@H](CC(=O)OC(C)(C)C)c1nnc(C)n1-2
Summary of the method: as §1

[5] = compound: c1ccc([C@@H]2C[C@H]2NC2CCNCC2)cc1
Summary of the method: as §1

Measured: log2 fold change

L2HGDH (UniProt Q9H9P8)
inactive: [1] -0.031 | [2] 0.07 | [3] 0.078 | [4] 0.018 | [5] -0.029

LARP4B (UniProt Q92615)
inactive: [1] -0.003 | [2] -0.013 | [3] 0 | [4] 0.081 | [5] -0.014

LRBA (UniProt P50851)
inactive: [1] -0.016 | [2] 0.05 | [3] 0.088 | [4] 0 | [5] -0.023

LEMD2 (UniProt Q8NC56)
inactive: [1] -0.031 | [2] 0.136 | [3] 0.114 | [4] -0.017 | [5] 0.005

LAMP2 isoform 2 (UniProt P13473)
inactive: [1] 0.051 | [2] -0.015 | [3] 0.04 | [4] 0.052 | [5] 0.007

LIMS1 isoform 3 (UniProt P48059)
inactive: [1] 0.007 | [2] -0.007 | [3] 0.006 | [4] -0.008 | [5] 0.046

LHPP (UniProt Q9H008)
inactive: [1] -0.075 | [2] -0.002 | [3] 0.024 | [4] -0.036 | [5] 0.019

LMAN1 (UniProt P49257)
inactive: [1] 0.002 | [2] -0.003 | [3] 0.019 | [4] 0 | [5] -0.003

LAMTOR1 (UniProt Q6IAA8)
inactive: [1] 0.101 | [2] 0.066 | [3] 0.014 | [4] -0.096 | [5] -0.042

LARP7 isoform 3 (UniProt Q4G0J3)
inactive: [1] 0.018 | [2] -0.032 | [3] 0.045 | [4] -0.048 | [5] 0.027

LEPR (UniProt P48357)
inactive: [1] 0.008 | [2] 0.032 | [3] 0.019 | [4] 0.046 | [5] 0.067

LIN7C (UniProt Q9NUP9)
inactive: [1] 0.016 | [2] 0.019 | [3] -0.04 | [4] 0.005 | [5] 0.002

LMBRD2 (UniProt Q68DH5)
inactive: [1] 0.029 | [2] 0.084 | [3] 0.06 | [4] -0.12 | [5] -0.035

KYNU (UniProt Q16719)
inactive: [1] -0.016 | [2] -0.016 | [3] 0.04 | [4] -0.014 | [5] 0.026

LRFN1 (UniProt Q9P244)
inactive: [1] -0.069 | [2] 0.183 | [3] 0.042 | [4] -0.02 | [5] -0.411

LAP3 (UniProt P28838)
inactive: [1] 0.018 | [2] 0.016 | [3] 0.019 | [4] -0.028 | [5] 0.011

LPCAT2 (UniProt Q7L5N7)
inactive: [1] -0.051 | [2] 0.057 | [3] 0.049 | [4] -0.141 | [5] -0.071

LPIN2 (UniProt Q92539)
inactive: [1] 0.054 | [2] 0.037 | [3] 0.12 | [4] 0.018 | [5] -0.054

LAMP2 (UniProt P13473)
inactive: [1] 0.022 | [2] -0.006 | [3] -0.041 | [4] -0.078 | [5] 0.074

LMNA (UniProt P02545)
inactive: [1] 0.043 | [2] -0.016 | [3] -0.044 | [4] -0.017 | [5] 0.052

LAMB1 (UniProt P07942)
inactive: [1] 0.013 | [2] 0.1 | [3] 0.056 | [4] -0.061 | [5] -0.022

LAMTOR3 (UniProt Q9UHA4)
inactive: [1] 0.068 | [2] 0.084 | [3] 0.074 | [4] -0.062 | [5] -0.063

LMBR1 isoform 3 (UniProt Q8WVP7)
inactive: [1] -0.194 | [2] 0.147 | [3] -0.134 | [4] -0.349 | [5] 0.078

LCP1 (UniProt P13796)
inactive: [1] -0.008 | [2] -0.006 | [3] 0.007 | [4] 0.01 | [5] 0.039

LRRC47 (UniProt Q8N1G4)
inactive: [1] -0.016 | [2] 0.014 | [3] 0.004 | [4] -0.024 | [5] -0.051

LACTB2 (UniProt Q53H82)
inactive: [1] 0.013 | [2] -0.039 | [3] 0.011 | [4] -0.006 | [5] 0.023

KYAT1 (UniProt Q16773)
inactive: [1] 0.008 | [2] 0.044 | [3] 0.015 | [4] 0.011 | [5] -0.009

KYAT3 (UniProt Q6YP21)
inactive: [1] -0.01 | [2] 0.027 | [3] 0.012 | [4] 0.008 | [5] 0.025

L1RE1 (UniProt Q9UN81)
inactive: [1] 0.059 | [2] 0.045 | [3] -0.204 | [4] 0.097 | [5] -0.01

LAMTOR4 (UniProt Q0VGL1)
inactive: [1] 0.056 | [2] -0.001 | [3] 0.01 | [4] -0.028 | [5] -0.064

LIMA1 isoform 4 (UniProt Q9UHB6)
inactive: [1] 0.002 | [2] 0.014 | [3] -0.002 | [4] -0.028 | [5] 0.034

LETM1 (UniProt O95202)
inactive: [1] -0.015 | [2] 0.017 | [3] 0.039 | [4] -0.066 | [5] -0.018

LIN7A (UniProt O14910)
inactive: [1] 0.027 | [2] 0.021 | [3] 0.117 | [4] 0.016 | [5] 0.055

KTI12 (UniProt Q96EK9)
inactive: [1] -0.111 | [2] -0.16 | [3] -0.043 | [4] -0.016 | [5] -0.065

LMNB2 (UniProt Q03252)
inactive: [1] 0.04 | [2] 0.052 | [3] 0.062 | [4] -0.04 | [5] 0.053

LARP1 (UniProt Q6PKG0)
inactive: [1] 0.002 | [2] -0.046 | [3] -0.046 | [4] 0.151 | [5] -0.002

LGALS8 isoform 2 (UniProt O00214)
inactive: [1] -0.032 | [2] 0.011 | [3] -0.166 | [4] -0.022 | [5] -0.12

LACTB (UniProt P83111)
inactive: [1] 0.029 | [2] -0.056 | [3] 0.065 | [4] 0.132 | [5] 0

LEPROTL1 isoform 2 (UniProt O95214)
inactive: [1] 0.084 | [2] 0.043 | [3] -0.058 | [4] -0.01 | [5] -0.046

LRIF1 (UniProt Q5T3J3)
inactive: [1] 0.05 | [2] 0.029 | [3] 0.005 | [4] 0.005 | [5] 0.028

LIG1 (UniProt P18858)
inactive: [1] -0.103 | [2] 0.094 | [3] 0.13 | [4] -0.064 | [5] -0.031

LMTK2 (UniProt Q8IWU2)
inactive: [1] 0.01 | [2] 0.002 | [3] -0.145 | [4] 0.022 | [5] 0.052

LPCAT3 (UniProt Q6P1A2)
inactive: [1] 0.019 | [2] 0.071 | [3] -0.011 | [4] -0.093 | [5] -0.052

LRRC20 (UniProt Q8TCA0)
inactive: [1] 0.063 | [2] 0.156 | [3] 0.163 | [4] -0.128 | [5] -0.08

LMBRD1 (UniProt Q9NUN5)
inactive: [1] 0.013 | [2] 0.099 | [3] 0.143 | [4] -0.178 | [5] 0.039

LARS (UniProt Q9P2J5)
inactive: [1] -0.007 | [2] -0.11 | [3] -0.089 | [4] 0.168 | [5] -0.01

LANCL2 (UniProt Q9NS86)
inactive: [1] 0.01 | [2] 0 | [3] -0.007 | [4] -0.021 | [5] 0.043

LPIN3 isoform 2 (UniProt Q9BQK8)
inactive: [1] -0.047 | [2] 0.066 | [3] 0.075 | [4] -0.138 | [5] -0.044

LIAS (UniProt O43766)
inactive: [1] 0.001 | [2] -0.042 | [3] 0.008 | [4] 0.049 | [5] 0.05

Two consecutive records already listed:
LIG1 (UniProt P18858)
inactive: [1] -0.103 | [2] 0.094 | [3] 0.13 | [4] -0.064 | [5] -0.031

LMTK2 (UniProt Q8IWU2)
inactive: [1] 0.01 | [2] 0.002 | [3] -0.145 | [4] 0.022 | [5] 0.052

Later entries:

LCP2 (UniProt Q13094)
inactive: [1] -0.03 | [3] 0.033 | [4] 0.023

LBHD1 (UniProt Q9BQE6)
inactive: [2] -0.242 | [5] 0.087

LAMB2 (UniProt P55268)
inactive: [4] -0.032

LRBA, A0A494BZW2
inactive: [1] 0.002 | [2] 0.048 | [4] 0.113 | [5] 0.014

LEPROT (UniProt O15243)
inactive: [2] -0.022 | [4] -0.235 | [5] 0.112

LIMS1 isoform 5 (UniProt P48059)
inactive: [2] 0.007 | [5] 0.005
